Measured values as given in article doi:10.1101/621367.
These are yes or no findings as the source states them, for the method shown. In cells and extracts the contact can be indirect. Some binding calls cover weakened binding; strength is not graded here. Sequences can lack the tags named with a protein.

The chains behind the UniProt entries cited, without tags or fusion partners.
UniProt P16371: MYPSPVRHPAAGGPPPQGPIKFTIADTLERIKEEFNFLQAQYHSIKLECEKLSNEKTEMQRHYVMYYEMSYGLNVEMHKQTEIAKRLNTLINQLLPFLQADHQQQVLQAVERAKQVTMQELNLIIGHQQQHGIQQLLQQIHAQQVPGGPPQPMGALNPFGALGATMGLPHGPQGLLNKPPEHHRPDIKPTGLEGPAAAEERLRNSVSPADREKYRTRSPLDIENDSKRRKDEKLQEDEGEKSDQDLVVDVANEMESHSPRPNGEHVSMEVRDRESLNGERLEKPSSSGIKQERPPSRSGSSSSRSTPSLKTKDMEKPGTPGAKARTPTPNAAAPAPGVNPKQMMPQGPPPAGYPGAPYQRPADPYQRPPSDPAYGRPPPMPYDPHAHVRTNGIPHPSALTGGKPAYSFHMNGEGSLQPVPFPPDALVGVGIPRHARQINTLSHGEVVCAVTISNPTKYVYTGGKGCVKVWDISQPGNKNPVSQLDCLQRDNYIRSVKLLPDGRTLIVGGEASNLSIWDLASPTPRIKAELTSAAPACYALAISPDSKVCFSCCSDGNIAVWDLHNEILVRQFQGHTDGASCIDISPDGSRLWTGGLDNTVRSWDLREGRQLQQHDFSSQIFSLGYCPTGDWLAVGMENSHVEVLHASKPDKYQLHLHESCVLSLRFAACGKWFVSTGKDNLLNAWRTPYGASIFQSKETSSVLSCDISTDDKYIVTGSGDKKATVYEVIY
UniProt P28159: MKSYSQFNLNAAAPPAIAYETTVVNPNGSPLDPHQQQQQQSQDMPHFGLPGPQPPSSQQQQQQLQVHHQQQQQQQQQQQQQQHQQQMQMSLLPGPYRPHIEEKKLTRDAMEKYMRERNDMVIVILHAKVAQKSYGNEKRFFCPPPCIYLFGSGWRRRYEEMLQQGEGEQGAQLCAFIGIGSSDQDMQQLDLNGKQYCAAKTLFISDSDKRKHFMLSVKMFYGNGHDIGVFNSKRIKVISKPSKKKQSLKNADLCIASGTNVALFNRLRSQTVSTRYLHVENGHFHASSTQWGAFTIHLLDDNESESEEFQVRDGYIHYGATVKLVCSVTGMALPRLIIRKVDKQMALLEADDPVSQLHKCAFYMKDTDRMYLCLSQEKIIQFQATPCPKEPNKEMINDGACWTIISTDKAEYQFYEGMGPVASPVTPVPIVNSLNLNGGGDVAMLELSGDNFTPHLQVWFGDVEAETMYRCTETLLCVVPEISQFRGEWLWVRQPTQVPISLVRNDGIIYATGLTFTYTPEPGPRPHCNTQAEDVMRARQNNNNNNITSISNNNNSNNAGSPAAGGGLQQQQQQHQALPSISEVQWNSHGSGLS
UniProt O46036: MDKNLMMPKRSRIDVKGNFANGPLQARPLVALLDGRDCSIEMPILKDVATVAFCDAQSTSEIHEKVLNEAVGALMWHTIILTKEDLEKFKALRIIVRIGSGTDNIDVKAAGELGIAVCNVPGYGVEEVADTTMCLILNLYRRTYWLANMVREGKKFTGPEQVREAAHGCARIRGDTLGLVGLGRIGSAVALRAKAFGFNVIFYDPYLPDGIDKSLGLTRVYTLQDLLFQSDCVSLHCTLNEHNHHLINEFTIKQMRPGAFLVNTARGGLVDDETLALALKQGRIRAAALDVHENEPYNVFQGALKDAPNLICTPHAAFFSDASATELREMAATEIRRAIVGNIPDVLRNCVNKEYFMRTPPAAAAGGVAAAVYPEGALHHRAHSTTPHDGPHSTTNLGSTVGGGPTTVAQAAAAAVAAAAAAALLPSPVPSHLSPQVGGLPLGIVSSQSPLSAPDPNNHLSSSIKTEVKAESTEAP

Columns and labels:
Experiment in all cases: pull-down
[1] = target: GST-tagged Drosophila Groucho (Drosophila melanogaster) (UniProt P16371)
[2] = target: GST-Su(H) fusion protein (Drosophila melanogaster Suppressor of Hairless) (Drosophila melanogaster) (UniProt P28159)
[3] = target: GST-tagged Drosophila CtBP (Drosophila melanogaster) (UniProt O46036)

| Binder | binding [1] | binding [2] | other results |
| --- | --- | --- | --- |
| His-tagged HLHmβ with the WRPW motif replaced by the … motif of Strigamia maritima Su(H) (protein, UniProt Q01069 1-191) MVLEMEMSKTYQYRKVMKPMLERKRRARINKCLDELKDIMVECLTQEGEHITRLEKADILELTVEHMKKLRAQKQLRLSSVTGGVSPSADPKLSIAESFRAGYVHAANEVSKTLAAVPGVSVDLGTQLMSHLGHRLNYLQVVVPSLPIGVPLQAPVEDQAMVTPPPSECDSLESGACSPAPSEASSTSGPMGSLTPPDKV | binds |  |  |
| His-tagged truncated HLHmβ lacking the WRPW motif (domain or fragment, UniProt Q01069 1-191) MVLEMEMSKTYQYRKVMKPMLERKRRARINKCLDELKDIMVECLTQEGEHITRLEKADILELTVEHMKKLRAQKQLRLSSVTGGVSPSADPKLSIAESFRAGYVHAANEVSKTLAAVPGVSVDLGTQLMSHLGHRLNYLQVVVPSLPIGVPLQAPVEDQAMVTPPPSECDSLESGACSPAPSEASSTSGPM | no binding |  |  |
| His-tagged Parasteatoda tepidariorum cS-CAP residues 233-432, wild type (domain or fragment) TVNTEDPPKDSINFLDHSRVTDPCSAASETSLPQDVPATSTVGSLKFFLGGRLVLKLNAQQDGGSGNKCQWVQSNDLPKHSNHNKKDKHKKKFAPYSYSSSGTQKPLKKGDDTSAVPDCDPSGIKKPRLKEYETSENSALGLLLCSSSWTPPVADGQESIDVDDTSSKTSEGYISPILSNNSRTSKIDTIKHDFASNPNT |  | binds |  |
| His-tagged 116-aa segment of Strigamia maritima Su(H) (exons 2 and 3), wild type (domain or fragment) GQYDYPPPLASTYSREADLWNVNLATYSSAPTTCTGATPAPSVTGFYAQATGSNSVSPSSVSLTTLTPHFADNHPVDLSNSHRGEGGHLDLVRFQSDRVDAYKHANGLSVHIPDHHA |  |  | binding [3]: binds |
| His-tagged Drosophila melanogaster Hairless residues 192-389, wild type (domain or fragment) AVVAAAAGTAKIGKGSNSGGSFDMGRTPISTHGNNSWGGYGGRLQFFKDGKFILELARSKDGDKSGWVSVTRKTFRPPSAATSATVTPTSAVTTAYPKNENSTSLSFSDDNSSIQSSPWQRDQPWKQSRPRRGISKELSLFFHRPRNSTLGRAALRTAARKRRRPHEPLTTSEDQQPIFATAIKAENGDDTLKAEAAE |  | binds |  |
